Data taken from patent publication US20230372307A1, “COMBINATION THERAPY USING BAX ACTIVATOR AGENT” (Albert Einstein College of Medicine, priority 2020, published 2023).

O=C1/C(=N\Nc2nccs2)C(c2ccccc2)=NN1c1nc(-c2ccccc2)cs1 [BTSA1]
necropsy finding (200 mg/kg BTSA1, 300 mg/kg BTSA1.2, oral gavage daily): die by kidney failure after 3 days of treatment
white blood cells and neutrophils levels (oral 200 mg/Kg daily, second day): increased white blood cells and neutrophils levels
